Measured values reported in publication PMC13002332.
Results are given in words; binding and its absence hold for the method and conditions named. Binding seen in cells or lysates may run through a third protein. Here binding means that the protein was enriched with, or labelled near, the bait; the list need not be complete. Sequences can lack the tags named with a protein.

T1: Cilia- and flagella-associated protein 77 (CFAP77), endogenous in mouse testis (mouse (endogenous in testis))
T1 sequence: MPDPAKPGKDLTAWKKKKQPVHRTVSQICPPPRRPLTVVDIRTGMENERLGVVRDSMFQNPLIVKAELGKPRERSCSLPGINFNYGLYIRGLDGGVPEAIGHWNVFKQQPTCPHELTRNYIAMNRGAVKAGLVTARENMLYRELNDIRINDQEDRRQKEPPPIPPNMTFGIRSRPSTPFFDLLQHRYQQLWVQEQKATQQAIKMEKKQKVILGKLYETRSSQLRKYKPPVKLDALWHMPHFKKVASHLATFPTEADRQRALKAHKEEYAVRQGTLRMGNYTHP


Biological target: T1, Cilia- and flagella-associated protein 77 (CFAP77), endogenous in mouse testis (mouse (endogenous in testis))
Test: affinity purification with mass spectrometry; immunoprecipitation with an anti-CFAP77 antibody on Dynabeads from mouse testis lysates, LC-MS/MS; Cfap77 KO testes with the same beads and antibody as negative control

Row | Binder | binding
1 | SPMIP8, endogenous in mouse testis (protein, UniProt Q6IMH0 1-216) MAQIIDLVPWDECSAHLYASPAVLLPLERVRHPLAGVKHQLYHPALPSLRRMDMDTVKGCLSDEHCQSSTYFSKDDFNKAHFTLLGVPNKPLQCLDFTATGQKLCHKYRGGKMIPIAPGINRVDWPCFTRAIEDWSKFVSRSEEFKLPCANKRVEGFSGYAVRYLKPEVTQNWRYCLNQNPSLDRYGQKPLPFDSLNAFRRFGSHYSRINYLTPWH | binds
2 | LGALS8, endogenous in mouse testis (protein, UniProt Q9JL15 1-316) MLSLNNLQNIIYNPIIPYVGTITEQLKPGSLIVIRGHVPKDSERFQVDFQLGNSLKPRADVAFHFNPRFKRSSCIVCNTLTQEKWGWEEITYDMPFRKEKSFEIVFMVLKNKFQVAVNGRHVLLYAHRISPEQIDTVGIYGKVNIHSIGFRFSSDLQSMETSALGLTQINRENIQKPGKLQLSLPFEARLNASMGPGRTVVIKGEVNTNARSFNVDLVAGKTRDIALHLNPRLNVKAFVRNSFLQDAWGEEERNITCFPFSSGMYFEMIIYCDVREFKVAINGVHSLEYKHRFKDLSSIDTLSVDGDIRLLDVRSW | binds
